This is one part of the list.
compound: CN1CCN(CCOc2cc(OC3CCOCC3)c3c(Nc4c(Cl)ccc5c4OCO5)ncnc3c2)CC1 [saracatinib]; experiment: log2 fold change, soluble protein after heating vs DMSO (PISA); higher = thermal stabilisation; K562 cells, 10 uM, 30 min; active = over 0.2 and 3.5 SD of the protein, either way, in both replicates (recomputed)
Outline: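 Quantification of soluble protein used TMTpro 16plex LC-MS/MS, with channel sums equalised. Samples were the supernatant after 21,000xg for 90 min of pooled aliquots from K562 cells (2×10^6 cells/mL) treated with 10 μM compound for 30 min, heated for 3 min over 48°C-58°C, and extracted in PBS with 0.5% NP-40 at 4°C. Values, from duplicates, describe thermal stability against control samples on a log2 fold-change scale.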

Amino acid sequences for entries named in this document (tags omitted). A change or cut given only in a name is not applied to a line headed by its entry.
UniProt Q9NWW6: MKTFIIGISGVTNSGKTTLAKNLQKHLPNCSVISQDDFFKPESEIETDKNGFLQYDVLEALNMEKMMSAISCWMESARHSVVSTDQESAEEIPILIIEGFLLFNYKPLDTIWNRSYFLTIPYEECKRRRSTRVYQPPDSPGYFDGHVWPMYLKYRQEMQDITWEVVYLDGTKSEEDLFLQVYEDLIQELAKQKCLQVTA
UniProt P48645: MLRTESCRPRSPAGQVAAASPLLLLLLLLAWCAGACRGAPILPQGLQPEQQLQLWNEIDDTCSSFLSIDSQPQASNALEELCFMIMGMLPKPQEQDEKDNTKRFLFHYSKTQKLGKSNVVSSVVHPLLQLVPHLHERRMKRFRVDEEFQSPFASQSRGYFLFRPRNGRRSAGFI
UniProt Q96T66: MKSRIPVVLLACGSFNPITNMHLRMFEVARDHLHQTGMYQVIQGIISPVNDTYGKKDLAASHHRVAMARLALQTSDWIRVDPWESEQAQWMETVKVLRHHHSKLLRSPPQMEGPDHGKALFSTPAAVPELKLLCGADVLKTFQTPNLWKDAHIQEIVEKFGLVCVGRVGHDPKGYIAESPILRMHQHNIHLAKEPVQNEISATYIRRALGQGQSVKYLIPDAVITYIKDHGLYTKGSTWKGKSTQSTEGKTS
UniProt Q9NPE3: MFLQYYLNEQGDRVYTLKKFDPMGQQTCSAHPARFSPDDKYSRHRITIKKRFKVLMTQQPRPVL
UniProt Q9GZP1: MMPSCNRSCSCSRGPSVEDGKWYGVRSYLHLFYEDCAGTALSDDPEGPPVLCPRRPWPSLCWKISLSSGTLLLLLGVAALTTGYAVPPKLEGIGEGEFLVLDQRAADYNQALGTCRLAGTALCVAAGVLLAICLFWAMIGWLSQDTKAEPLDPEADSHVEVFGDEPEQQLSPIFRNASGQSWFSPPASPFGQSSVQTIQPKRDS
UniProt Q96L73: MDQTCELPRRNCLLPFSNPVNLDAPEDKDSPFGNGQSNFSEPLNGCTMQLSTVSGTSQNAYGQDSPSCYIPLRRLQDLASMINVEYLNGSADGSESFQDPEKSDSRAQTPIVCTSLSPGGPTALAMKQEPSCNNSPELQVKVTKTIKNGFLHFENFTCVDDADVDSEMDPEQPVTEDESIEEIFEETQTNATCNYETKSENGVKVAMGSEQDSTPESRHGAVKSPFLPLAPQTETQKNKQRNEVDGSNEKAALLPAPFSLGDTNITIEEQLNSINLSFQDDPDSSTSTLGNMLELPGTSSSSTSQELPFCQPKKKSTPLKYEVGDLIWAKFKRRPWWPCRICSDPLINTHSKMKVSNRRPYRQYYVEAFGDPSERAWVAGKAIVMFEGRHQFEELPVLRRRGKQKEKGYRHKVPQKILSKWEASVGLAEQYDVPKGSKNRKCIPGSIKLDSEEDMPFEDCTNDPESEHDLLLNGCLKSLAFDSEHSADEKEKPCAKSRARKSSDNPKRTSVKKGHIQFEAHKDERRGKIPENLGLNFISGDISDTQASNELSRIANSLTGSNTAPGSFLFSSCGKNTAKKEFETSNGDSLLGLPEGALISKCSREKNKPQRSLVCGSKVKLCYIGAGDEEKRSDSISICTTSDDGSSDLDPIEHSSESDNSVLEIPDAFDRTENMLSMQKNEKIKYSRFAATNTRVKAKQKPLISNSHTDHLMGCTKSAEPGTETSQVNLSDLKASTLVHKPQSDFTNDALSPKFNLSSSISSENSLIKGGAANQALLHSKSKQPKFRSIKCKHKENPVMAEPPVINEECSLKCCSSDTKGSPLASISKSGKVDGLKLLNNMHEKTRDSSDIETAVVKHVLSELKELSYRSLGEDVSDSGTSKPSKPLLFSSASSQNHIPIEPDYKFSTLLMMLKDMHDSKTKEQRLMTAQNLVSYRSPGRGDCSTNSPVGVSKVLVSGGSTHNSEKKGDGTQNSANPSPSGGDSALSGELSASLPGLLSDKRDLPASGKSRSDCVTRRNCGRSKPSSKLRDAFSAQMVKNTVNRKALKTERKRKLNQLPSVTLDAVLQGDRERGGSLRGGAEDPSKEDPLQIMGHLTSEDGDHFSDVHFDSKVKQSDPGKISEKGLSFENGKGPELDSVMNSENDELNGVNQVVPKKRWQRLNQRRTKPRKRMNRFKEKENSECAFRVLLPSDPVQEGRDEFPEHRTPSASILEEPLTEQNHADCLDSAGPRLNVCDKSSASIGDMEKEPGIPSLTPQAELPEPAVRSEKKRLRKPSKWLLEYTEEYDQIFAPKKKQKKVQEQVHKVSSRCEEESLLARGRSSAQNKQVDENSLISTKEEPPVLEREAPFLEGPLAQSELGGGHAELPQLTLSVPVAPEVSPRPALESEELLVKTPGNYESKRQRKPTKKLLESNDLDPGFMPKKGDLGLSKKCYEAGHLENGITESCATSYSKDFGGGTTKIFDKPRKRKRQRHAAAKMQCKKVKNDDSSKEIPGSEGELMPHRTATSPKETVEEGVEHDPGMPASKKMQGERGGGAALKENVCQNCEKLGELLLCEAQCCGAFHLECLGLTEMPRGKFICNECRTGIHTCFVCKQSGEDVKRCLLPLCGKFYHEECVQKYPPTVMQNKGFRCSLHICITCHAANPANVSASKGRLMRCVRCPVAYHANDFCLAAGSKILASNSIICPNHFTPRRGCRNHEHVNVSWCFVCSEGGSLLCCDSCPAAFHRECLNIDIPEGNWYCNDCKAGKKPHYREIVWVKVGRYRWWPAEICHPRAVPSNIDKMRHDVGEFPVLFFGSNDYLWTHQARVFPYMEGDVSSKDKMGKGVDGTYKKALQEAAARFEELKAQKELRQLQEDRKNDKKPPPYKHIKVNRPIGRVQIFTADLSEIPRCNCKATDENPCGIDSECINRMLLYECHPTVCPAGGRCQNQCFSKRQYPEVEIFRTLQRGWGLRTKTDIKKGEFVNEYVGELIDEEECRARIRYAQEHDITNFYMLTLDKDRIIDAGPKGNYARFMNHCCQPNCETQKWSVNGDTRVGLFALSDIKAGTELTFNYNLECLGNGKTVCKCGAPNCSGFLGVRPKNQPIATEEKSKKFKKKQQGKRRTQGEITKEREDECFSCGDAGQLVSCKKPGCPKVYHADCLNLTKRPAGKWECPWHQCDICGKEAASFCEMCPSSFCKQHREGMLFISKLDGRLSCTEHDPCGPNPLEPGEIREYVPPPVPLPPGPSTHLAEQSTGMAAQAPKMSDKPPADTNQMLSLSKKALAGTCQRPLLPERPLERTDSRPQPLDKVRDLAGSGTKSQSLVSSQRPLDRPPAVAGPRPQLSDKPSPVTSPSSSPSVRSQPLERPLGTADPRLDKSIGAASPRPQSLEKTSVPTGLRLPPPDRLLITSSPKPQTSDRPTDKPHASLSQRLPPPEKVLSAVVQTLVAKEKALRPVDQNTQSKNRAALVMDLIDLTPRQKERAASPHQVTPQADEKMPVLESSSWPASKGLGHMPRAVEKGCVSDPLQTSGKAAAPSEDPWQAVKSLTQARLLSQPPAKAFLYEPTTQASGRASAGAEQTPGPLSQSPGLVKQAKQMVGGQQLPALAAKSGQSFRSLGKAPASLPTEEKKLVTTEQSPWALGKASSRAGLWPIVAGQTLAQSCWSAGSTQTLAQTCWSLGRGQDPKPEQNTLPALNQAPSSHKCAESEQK
UniProt Q12980: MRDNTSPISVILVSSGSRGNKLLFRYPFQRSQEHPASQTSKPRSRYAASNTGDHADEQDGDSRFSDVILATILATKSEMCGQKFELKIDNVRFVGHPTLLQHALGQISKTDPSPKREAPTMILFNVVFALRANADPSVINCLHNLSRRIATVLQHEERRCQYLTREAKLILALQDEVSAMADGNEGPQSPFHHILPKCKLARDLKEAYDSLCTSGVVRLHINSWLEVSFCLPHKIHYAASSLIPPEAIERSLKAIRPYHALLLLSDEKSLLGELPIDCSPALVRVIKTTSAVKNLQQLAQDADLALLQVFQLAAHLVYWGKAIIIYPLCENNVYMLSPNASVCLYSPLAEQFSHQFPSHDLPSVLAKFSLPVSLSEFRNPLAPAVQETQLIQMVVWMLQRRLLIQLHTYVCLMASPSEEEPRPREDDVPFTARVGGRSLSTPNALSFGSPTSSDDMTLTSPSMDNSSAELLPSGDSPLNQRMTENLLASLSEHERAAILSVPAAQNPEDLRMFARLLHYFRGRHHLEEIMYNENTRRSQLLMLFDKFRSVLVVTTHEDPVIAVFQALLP
UniProt Q9UHC9: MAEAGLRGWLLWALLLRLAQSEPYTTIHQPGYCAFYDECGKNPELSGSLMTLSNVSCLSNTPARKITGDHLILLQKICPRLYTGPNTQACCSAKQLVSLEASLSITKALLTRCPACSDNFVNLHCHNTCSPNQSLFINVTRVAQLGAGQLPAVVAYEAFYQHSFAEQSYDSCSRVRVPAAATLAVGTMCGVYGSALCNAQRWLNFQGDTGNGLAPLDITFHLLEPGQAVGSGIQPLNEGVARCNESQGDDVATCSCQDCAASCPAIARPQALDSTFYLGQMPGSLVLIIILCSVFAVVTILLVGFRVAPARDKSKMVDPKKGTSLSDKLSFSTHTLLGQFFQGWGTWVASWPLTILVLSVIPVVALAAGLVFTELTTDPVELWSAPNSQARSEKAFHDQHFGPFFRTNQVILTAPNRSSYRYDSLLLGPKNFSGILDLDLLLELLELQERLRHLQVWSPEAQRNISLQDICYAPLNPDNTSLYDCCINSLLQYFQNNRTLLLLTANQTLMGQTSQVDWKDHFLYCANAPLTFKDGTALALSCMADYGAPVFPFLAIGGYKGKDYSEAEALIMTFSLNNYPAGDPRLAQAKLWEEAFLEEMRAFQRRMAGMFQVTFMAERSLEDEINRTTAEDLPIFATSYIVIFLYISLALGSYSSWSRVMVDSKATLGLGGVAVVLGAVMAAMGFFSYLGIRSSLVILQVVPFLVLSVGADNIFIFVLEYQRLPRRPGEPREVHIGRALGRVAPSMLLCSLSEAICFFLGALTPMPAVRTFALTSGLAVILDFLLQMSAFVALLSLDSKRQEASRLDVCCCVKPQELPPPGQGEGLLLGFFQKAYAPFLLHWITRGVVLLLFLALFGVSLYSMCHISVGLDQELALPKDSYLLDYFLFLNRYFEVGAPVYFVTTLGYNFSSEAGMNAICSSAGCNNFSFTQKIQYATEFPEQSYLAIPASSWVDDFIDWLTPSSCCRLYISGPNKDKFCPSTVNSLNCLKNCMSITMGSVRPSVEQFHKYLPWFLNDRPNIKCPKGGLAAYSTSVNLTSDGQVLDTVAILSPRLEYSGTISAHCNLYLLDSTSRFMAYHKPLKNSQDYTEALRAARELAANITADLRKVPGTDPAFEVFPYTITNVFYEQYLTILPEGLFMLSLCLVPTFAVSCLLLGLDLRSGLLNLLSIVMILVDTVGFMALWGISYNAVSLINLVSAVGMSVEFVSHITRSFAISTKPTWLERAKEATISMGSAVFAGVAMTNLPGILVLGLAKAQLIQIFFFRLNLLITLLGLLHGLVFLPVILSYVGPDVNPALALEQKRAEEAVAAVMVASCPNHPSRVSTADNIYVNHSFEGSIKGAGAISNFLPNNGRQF
UniProt P25963: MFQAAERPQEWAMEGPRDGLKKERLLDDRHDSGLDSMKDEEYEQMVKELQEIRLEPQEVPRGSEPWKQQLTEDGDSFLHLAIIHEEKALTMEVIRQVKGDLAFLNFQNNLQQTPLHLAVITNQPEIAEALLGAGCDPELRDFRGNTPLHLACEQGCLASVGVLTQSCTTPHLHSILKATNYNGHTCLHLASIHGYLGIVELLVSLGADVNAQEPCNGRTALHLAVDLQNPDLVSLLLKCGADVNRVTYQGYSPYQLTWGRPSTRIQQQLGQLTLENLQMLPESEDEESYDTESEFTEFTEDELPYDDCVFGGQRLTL
UniProt Q8IXH7, whole entry, looked up: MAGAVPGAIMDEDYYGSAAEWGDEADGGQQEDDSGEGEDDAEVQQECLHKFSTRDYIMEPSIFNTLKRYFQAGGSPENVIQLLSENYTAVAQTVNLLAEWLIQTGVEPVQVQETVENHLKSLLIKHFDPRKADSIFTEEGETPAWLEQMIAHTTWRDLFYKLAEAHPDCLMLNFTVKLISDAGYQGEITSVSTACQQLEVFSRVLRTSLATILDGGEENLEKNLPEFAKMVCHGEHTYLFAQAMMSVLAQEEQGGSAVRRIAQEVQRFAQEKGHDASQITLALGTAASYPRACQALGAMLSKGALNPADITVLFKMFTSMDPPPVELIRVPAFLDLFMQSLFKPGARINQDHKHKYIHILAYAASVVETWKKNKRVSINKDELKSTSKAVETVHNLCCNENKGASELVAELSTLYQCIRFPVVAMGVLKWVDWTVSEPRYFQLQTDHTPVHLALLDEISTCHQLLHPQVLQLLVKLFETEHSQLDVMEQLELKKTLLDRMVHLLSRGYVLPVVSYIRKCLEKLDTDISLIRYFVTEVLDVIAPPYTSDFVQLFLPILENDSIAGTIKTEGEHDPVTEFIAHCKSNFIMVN

Row | Target | log2 fold change
1 | NMRK1 (UniProt Q9NWW6) | inactive: -0.017
2 | NMU (UniProt P48645) | inactive: -0.017
3 | NMNAT3 (UniProt Q96T66) | inactive: -0.043
4 | NKAP (UniProt Q8N5F7) | inactive: 0.067
5 | NOP10 (UniProt Q9NPE3) | inactive: -0.137
6 | NR3C1 isoform 3 (UniProt P04150) | inactive: -0.053
7 | NRSN2 (UniProt Q9GZP1) | inactive: 0.057
8 | NSD1 (UniProt Q96L73) | inactive: 0.082
9 | NPRL3 (UniProt Q12980) | inactive: 0.138
10 | NPC1L1 (UniProt Q9UHC9) | inactive: -0.026
11 | NFKBIA (UniProt P25963) | inactive: 0.175
12 | NOL8 (UniProt Q76FK4) | inactive: 0.105
13 | NELFCD (UniProt Q8IXH7) | inactive: -0.114

A different layout for some results above:
Row,Target,log2 fold change
3,NMNAT3 (UniProt Q96T66),inactive: -0.043
4,NKAP (UniProt Q8N5F7),inactive: 0.067
